# Measured values taken from paper PMC7093963.
# Chains of the proteins cited; added tags and fusions are not shown.
# UniProt Q13838, whole entry: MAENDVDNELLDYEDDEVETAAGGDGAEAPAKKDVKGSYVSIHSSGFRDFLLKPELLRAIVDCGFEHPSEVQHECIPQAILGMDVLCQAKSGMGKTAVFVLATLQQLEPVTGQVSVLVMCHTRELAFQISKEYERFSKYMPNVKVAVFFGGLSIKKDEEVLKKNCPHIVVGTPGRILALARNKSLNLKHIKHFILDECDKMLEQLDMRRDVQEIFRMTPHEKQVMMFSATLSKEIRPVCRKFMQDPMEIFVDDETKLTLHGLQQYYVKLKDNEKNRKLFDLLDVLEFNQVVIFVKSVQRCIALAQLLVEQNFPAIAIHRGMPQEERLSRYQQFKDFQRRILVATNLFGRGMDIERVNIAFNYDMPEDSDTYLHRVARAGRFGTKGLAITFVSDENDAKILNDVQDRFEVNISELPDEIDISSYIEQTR
# Molecular target: His-DDX39B (UniProt Q13838)
# Experiment: EMSA
# Settings: 0-300 ng protein, bound less than -1C; EMSA: bacterially expressed DDX39B, 32P probes, non-denaturing 5% acrylamide gel; binding buffer, pH and temperature not given; recombinant protein; protein details: N-terminal His (pET-45b, 5' polyhistidine); label: 32P (T4 PNK)
sequence,measurement,value
TCGAGTTAGATGGGGAATTTCCAGGCAC (double strand) [-1A kB probe],binding result,binds more weakly

# The exact form of at least one protein or probe is not confirmed. The comparison behind a weaker result is the experiment's own reference, which may not be listed here.
